According to patent US20080108569A1, “Compositions and Methods for Treating Diseases Associated With Phlpp” (The Regents of the University of California, priority 2005, published 2008):
No constants are given. Whether binding was seen depends on the method and setting. In cells and extracts the contact can be indirect. Some binding calls cover weakened binding; strength is not graded here. Where a sequence is shown, tags or fusion partners need not be part of it.

Sequences of proteins named here, by UniProt entry; tags and fusion partners are left off.
UniProt P31749: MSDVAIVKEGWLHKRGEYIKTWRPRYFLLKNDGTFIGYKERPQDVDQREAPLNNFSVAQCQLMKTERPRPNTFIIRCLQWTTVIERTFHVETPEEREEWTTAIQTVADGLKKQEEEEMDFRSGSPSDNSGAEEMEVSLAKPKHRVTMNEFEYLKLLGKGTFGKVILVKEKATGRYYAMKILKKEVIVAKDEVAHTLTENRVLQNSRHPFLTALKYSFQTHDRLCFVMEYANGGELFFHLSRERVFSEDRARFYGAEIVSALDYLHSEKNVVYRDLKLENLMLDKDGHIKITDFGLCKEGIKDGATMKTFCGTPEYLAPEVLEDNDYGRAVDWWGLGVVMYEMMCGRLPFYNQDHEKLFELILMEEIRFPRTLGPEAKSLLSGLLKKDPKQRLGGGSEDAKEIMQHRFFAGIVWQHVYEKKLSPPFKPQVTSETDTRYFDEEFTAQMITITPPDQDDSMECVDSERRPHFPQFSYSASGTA

Target: endogenous Akt (UniProt P31749)
Experiment: co-immunoprecipitation from 293T cells, in both directions (anti-HA and Akt agarose), Western blot

B1: HA-tagged full length PHLPP2 (enzyme)
chain: MGYPYDVPDYAMKRNGSRNCLNRRSRFGSRERDWLREDVKRGCVYLYGADTTTATTTTTTSSSSSSSSSSSDLHLVLCTVETPASEICAGEGRESLYLQLHGDLVRRLEPTERPLQIVYDYLSRLGFDDPVRIQEEATNPDLGCMIRFYGEKPCHMDRLDRILLSGIYNVRKGKTQLHKWAERLVVLCGTCLIVSSVKDCQTGKMHILPLVGGKIEEVKRRQYSLAFSSAGAQAQTYHVSFETLAEYQRWQRQASKVVSQRISTVDLSCYSLEEVPEHLFYSQDITYLNLRHNFMQLERPGGLDTLYKFSQLKGLNLSHNKLGLFPILLCEISTLTELNLSCNGFHDLPSQIGNLLNLQTLCLDGNFLTTLPEELGNLQQLSSLGISFNNFSQIPEVYEKLTMLDRVVMAGNCLEVLNLGVLNRMNHIKHVDLRMNHLKTMVIENLEGNKHITHVDLRDNRLTDLDLSSLCSLEQLHCGRNQLRELTLSGFSLRTLYASSNRLTAVNVYPVPSLLTFLDLSRNLLECVPDWACEAKKIEVLDVSYNLLTEVPVRILSSLSLRKLMLGHNHVQNLPTLVEHIPLEVLDLQHNALTRLPDTLFSKALNLRYLNASANSLESLPSACTGEESLSMLQLLYLTNNLLTDQCIPVLVGHLHLRILHLANNQLQTFPASKLNKLEQLEELNLSGNKLKTIPTTIANCKRLHTLVAHSNNISIFPEILQLPQIQFVDLSCNDLTEILIPEALPATLQDLDLTGNTNLVLEHKTLDIFSHITTLKIDQKPLPTTDSTVTSTFWSHGLAEMAGQRNKLCVSALAMDSFAEGVGAVYGMFDGDRNEELPRLLQCTMADVLLEEVQQSTNDTVFMANTFLVSHRKLGMAGQKLGSSALLCYIRPDTADPASSFSLTVANVGTCQAVLCRGGKPVPLSKVFSLEQDPEEAQRVKDQKAIITEDNKVNGVTCCTRMLGCTYLYPWILPKPHISSTPLTIQDELLILGNKALWEHLSYTEAVNAVRHVQDPLAAAKKLCTLAQSYGCQDNVGAMVVYLNIGEEGCTCEMNGLTLPGPVGFASTTTIKDAPKPATPSSSSGIASEFSSEMSTSEVSSEVGSTASDEHNAGGLDTALLPRPERRCSLHPTPTSGLFQRQPSSATFSSNQSDNGLDSDDDQPVEGVITNGSKVEVEVDIHCCRGRDLENSPPLIESSPTLCSEEHARGSCFGIRRQNSVNSGMLLPMSKDRMELQKSPSTSCLYGKKLSNGSIVPLEDSLNLIEVATEVPKRKTGYFAAPTQMEPEDQFVVPHDLEEEVKEQMKQHQDSRLEPEPHEEDRTEPPEEFDTAL
  binding: binds
